Assay results: the supplement of paper PMC12595434, “Development of retinoid nuclear receptor pathway antagonists through targeting aldehyde dehydrogenase 1A3” (iScience, 2025)
The other results are listed elsewhere or left out. Single values of this set are uncertain.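 Tm was set to 64 °C where no melting was found, and many curves are irregular.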

Sequences of proteins named here, by UniProt entry; tags and fusion partners are left off. A change or cut given only in a name is not applied to a line headed by its entry.
UniProt Q14123, whole entry: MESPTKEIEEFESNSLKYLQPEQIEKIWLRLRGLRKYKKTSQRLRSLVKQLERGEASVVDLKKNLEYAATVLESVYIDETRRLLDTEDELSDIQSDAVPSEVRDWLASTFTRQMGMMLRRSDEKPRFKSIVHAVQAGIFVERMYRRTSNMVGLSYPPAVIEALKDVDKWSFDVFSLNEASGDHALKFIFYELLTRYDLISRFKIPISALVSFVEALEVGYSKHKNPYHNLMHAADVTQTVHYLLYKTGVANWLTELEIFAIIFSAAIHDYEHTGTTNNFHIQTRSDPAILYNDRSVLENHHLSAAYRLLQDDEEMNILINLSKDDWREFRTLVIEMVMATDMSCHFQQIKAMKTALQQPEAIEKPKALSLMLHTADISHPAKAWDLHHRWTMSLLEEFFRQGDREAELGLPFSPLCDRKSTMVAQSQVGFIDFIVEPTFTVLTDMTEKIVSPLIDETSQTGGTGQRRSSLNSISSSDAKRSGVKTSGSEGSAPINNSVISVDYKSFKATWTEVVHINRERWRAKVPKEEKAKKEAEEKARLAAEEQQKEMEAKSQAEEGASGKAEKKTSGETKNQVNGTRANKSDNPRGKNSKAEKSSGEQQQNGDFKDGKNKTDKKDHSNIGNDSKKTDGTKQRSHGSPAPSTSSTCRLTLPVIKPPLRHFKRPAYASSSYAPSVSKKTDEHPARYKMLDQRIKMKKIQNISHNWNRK
UniProt Q13636: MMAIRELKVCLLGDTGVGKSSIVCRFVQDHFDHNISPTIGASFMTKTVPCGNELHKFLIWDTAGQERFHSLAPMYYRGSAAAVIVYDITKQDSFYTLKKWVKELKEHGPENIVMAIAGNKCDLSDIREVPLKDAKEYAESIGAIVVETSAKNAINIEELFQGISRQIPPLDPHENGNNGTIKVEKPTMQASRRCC
UniProt Q13049: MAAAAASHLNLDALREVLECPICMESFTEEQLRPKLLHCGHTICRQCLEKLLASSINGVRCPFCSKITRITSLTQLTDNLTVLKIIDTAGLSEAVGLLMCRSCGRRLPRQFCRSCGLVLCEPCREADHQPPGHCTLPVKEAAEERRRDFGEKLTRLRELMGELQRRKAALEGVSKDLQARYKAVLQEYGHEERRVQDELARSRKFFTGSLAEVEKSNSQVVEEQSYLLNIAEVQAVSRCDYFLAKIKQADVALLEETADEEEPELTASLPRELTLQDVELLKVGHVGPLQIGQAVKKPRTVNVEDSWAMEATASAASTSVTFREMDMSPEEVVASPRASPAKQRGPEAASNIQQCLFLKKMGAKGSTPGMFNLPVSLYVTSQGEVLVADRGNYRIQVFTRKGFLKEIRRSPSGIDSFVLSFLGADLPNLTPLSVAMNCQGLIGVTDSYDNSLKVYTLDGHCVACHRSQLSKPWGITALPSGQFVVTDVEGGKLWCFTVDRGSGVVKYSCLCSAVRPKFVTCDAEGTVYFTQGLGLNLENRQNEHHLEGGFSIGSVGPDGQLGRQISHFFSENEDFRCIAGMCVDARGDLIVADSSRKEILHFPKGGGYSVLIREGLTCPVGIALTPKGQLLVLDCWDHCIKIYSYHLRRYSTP
UniProt Q14493, whole entry, looked up: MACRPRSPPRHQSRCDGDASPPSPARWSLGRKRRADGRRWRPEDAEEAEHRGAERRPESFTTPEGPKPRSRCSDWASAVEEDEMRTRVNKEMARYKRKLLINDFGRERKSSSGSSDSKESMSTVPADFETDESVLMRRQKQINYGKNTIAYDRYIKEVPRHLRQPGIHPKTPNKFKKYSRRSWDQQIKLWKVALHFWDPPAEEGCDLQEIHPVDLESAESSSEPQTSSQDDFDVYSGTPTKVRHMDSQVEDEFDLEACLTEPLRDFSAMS
UniProt Q14571, whole entry: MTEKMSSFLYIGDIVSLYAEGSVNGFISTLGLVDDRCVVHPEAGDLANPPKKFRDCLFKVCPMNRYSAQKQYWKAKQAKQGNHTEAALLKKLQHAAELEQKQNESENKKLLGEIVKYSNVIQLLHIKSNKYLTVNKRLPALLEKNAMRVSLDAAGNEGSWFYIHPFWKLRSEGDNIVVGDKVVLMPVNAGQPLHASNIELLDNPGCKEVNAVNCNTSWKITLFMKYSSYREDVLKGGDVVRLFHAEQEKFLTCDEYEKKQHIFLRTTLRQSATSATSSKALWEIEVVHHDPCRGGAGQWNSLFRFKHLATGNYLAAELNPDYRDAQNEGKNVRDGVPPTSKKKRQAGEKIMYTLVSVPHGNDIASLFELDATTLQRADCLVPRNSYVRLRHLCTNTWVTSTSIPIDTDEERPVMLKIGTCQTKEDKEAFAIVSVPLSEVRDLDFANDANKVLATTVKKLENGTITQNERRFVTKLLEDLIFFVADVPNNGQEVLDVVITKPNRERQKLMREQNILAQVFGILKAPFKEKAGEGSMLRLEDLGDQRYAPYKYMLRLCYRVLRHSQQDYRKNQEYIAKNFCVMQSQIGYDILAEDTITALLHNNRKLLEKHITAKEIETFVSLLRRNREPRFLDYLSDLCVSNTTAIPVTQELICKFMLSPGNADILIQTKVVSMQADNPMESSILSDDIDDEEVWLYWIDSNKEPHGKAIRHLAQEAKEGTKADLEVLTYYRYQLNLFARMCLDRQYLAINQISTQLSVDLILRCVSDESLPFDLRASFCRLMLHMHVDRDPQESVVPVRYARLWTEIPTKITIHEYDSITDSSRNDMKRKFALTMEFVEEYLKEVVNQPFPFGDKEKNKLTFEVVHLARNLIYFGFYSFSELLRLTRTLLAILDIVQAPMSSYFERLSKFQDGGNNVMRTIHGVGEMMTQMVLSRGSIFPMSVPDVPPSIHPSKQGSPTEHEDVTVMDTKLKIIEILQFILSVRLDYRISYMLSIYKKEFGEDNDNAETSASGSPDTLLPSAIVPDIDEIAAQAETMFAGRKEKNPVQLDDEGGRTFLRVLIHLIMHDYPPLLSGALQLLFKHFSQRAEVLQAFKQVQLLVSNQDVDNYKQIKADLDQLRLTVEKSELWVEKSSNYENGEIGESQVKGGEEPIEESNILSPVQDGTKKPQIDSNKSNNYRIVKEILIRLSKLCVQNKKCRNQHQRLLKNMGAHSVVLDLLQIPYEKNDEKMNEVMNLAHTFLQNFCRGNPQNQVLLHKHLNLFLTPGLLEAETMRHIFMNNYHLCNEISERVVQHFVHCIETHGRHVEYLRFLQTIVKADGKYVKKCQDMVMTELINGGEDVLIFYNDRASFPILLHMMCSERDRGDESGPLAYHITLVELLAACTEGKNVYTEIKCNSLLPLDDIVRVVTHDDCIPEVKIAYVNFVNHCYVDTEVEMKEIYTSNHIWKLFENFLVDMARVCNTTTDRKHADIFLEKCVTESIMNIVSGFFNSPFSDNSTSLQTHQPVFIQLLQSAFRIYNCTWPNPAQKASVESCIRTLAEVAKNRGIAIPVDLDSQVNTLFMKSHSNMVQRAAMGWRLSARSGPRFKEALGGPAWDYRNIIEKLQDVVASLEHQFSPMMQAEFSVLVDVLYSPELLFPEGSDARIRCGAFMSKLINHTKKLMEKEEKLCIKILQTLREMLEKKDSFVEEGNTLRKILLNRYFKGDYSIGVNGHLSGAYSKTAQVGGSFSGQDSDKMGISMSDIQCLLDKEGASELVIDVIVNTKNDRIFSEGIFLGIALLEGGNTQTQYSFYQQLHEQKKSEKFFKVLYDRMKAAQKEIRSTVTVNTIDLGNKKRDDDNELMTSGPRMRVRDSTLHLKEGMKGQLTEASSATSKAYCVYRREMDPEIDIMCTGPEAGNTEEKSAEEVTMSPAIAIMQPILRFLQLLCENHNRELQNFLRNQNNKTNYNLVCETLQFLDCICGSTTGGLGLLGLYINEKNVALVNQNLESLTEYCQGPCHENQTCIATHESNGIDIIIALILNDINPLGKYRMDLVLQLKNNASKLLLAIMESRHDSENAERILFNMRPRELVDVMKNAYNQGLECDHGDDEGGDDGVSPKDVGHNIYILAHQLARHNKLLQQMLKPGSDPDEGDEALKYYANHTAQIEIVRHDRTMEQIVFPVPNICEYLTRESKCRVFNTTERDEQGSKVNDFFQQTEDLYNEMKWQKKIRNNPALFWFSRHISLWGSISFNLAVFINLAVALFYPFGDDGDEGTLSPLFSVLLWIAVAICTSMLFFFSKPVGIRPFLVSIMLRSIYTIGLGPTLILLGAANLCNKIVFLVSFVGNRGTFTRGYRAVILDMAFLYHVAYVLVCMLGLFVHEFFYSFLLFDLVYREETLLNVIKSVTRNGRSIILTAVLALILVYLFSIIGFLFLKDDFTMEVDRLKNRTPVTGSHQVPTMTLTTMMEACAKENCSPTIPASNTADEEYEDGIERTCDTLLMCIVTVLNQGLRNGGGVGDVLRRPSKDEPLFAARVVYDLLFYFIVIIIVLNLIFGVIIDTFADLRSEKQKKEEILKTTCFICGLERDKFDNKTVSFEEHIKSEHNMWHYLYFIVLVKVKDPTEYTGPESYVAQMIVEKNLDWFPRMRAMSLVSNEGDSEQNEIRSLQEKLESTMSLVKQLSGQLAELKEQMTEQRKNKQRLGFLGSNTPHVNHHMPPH
UniProt Q14108: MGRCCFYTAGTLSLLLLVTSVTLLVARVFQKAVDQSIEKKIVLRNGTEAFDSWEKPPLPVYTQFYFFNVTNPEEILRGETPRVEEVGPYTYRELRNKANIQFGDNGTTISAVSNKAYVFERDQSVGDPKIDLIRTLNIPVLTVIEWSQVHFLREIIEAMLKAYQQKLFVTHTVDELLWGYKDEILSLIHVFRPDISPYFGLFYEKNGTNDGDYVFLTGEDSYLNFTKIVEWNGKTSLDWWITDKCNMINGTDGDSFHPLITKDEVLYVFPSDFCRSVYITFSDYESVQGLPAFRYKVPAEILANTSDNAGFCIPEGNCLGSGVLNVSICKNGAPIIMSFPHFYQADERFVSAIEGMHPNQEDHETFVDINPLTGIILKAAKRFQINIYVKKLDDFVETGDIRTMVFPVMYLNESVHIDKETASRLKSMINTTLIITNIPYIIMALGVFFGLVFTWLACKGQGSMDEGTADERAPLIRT
UniProt Q14195, whole entry: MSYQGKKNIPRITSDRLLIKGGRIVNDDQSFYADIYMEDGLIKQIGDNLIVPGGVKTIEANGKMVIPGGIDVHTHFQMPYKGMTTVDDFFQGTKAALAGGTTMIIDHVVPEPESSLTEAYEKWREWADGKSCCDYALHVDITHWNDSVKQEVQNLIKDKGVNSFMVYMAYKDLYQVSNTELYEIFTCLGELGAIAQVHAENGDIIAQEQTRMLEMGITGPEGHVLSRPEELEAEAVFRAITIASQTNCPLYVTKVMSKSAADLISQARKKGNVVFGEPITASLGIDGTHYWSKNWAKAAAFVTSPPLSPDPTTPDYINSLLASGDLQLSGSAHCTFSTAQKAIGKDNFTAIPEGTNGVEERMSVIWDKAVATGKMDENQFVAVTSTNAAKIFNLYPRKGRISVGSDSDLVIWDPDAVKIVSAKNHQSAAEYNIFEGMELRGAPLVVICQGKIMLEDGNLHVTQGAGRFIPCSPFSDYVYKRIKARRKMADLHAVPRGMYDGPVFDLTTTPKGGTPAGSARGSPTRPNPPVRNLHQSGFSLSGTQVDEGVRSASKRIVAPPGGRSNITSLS
UniProt Q13619, whole entry: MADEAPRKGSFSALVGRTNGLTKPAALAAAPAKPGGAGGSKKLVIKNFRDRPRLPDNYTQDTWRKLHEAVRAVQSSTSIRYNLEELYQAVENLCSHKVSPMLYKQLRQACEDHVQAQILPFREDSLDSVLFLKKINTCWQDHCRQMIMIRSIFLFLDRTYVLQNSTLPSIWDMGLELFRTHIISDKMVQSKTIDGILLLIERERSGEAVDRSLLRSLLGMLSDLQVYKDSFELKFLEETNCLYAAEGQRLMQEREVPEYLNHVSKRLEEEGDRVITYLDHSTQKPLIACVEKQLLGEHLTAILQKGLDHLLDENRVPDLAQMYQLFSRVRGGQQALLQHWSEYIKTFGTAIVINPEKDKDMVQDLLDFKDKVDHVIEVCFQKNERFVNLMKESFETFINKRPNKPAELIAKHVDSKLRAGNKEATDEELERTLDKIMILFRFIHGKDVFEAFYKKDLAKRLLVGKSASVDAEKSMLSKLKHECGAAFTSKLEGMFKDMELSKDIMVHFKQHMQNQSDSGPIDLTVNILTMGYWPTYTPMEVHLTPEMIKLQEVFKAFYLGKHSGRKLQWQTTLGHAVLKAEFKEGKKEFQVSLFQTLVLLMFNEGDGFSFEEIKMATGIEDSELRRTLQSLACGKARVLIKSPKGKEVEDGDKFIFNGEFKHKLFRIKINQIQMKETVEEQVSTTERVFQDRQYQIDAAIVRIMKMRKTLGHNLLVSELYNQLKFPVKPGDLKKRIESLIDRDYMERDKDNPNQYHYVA
UniProt Q14011: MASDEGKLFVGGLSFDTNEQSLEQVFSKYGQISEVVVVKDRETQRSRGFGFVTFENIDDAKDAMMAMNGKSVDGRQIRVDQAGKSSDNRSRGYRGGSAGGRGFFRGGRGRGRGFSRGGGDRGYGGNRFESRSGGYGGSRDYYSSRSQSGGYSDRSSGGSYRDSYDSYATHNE

compound: CCc1cnccc1C(=O)Nc1cc2c(cc1F)NC(=O)CC2; test: melting temperature shift (DMSO Tm minus MBE1-treated Tm) in cellular thermal proteome profiling; higher = less thermal stabilization by MBE1 (negative = stabilized by MBE1); conditions: A375; MBE1 concentration: 100 nM

Target | melting temperature shift [°C]
EIF3I (UniProt Q13347) | -0.442
CAMK2D (UniProt Q13557) | 0.678
UniProt Q14123 | -1.33
DNAJC3 (UniProt Q13217) | -0.872
PSME4 (UniProt Q14997) | -0.484
PSMD6 (UniProt Q15008) | -0.791
PPP2R5D (UniProt Q14738) | -0.409
EXOSC2 (UniProt Q13868) | -0.916
PDIA5 (UniProt Q14554) | -0.604
TCEB3 (UniProt Q14241) | -0.269
RAB31 (UniProt Q13636) | -1.01
NMI (UniProt Q13287) | -0.159
CUL1 (UniProt Q13616) | -1.19
MORC3 (UniProt Q14149) | -0.786
TRIM32 (UniProt Q13049) | -0.55
UniProt Q13523 | 0.727
TFDP1 (UniProt Q14186) | -0.377
SLBP (UniProt Q14493) | -1.07
USP10 (UniProt Q14694) | -0.897

Target | melting temperature shift [°C]
ALKBH1 (UniProt Q13686) | -0.0366
ITPR2 (UniProt Q14571) | -0.579
IQGAP2 (UniProt Q13576) | 1.54
UniProt Q13216 | 1.64
VGLL4 (UniProt Q14135) | -0.14
SCARB2 (UniProt Q14108) | -2.8
MVP (UniProt Q14764) | -0.657
UniProt Q13574 | 0.598
UniProt Q14195 | -1.99
STIM1 (UniProt Q13586) | 0.659
SMAD4 (UniProt Q13485) | -0.472
UniProt Q15019 | -1.16
CUL4A (UniProt Q13619) | 0.995
SF3B2 (UniProt Q13435) | -0.592
UniProt Q14191 | -1.24
CIRBP (UniProt Q14011) | -1.34
SLMAP (UniProt Q14BN4) | 0.116
TUBB3 (UniProt Q13509) | -0.967

same assay, conditions: A375; MBE1 concentration: 1 uM

Target | melting temperature shift [°C]
EIF3I (UniProt Q13347) | -0.489
CAMK2D (UniProt Q13557) | 0.0855
UniProt Q14123 | 0.588
DNAJC3 (UniProt Q13217) | -0.349
PSME4 (UniProt Q14997) | 0.989
PSMD6 (UniProt Q15008) | 0.476
PPP2R5D (UniProt Q14738) | -0.0329
EXOSC2 (UniProt Q13868) | -1.44
PDIA5 (UniProt Q14554) | -0.812
TCEB3 (UniProt Q14241) | 0.0897
RAB31 (UniProt Q13636) | -2.24
NMI (UniProt Q13287) | -0.33
CUL1 (UniProt Q13616) | -1.27
MORC3 (UniProt Q14149) | -0.165
TRIM32 (UniProt Q13049) | 0.761
UniProt Q13523 | 0.482
TFDP1 (UniProt Q14186) | -1.17
SLBP (UniProt Q14493) | -1.06
USP10 (UniProt Q14694) | -0.352

Target | melting temperature shift [°C]
ALKBH1 (UniProt Q13686) | -0.00611
ITPR2 (UniProt Q14571) | -0.522
IQGAP2 (UniProt Q13576) | 0.299
UniProt Q13216 | 2.18
VGLL4 (UniProt Q14135) | 2.26
SCARB2 (UniProt Q14108) | -2.76
MVP (UniProt Q14764) | 0.208
UniProt Q13574 | -1.22
UniProt Q14195 | -0.0488
STIM1 (UniProt Q13586) | 0.849
SMAD4 (UniProt Q13485) | 0.104
UniProt Q15019 | 0.214
CUL4A (UniProt Q13619) | 0.659
SF3B2 (UniProt Q13435) | 0.531
UniProt Q14191 | -0.436
CIRBP (UniProt Q14011) | 0.557
SLMAP (UniProt Q14BN4) | -0.0366
TUBB3 (UniProt Q13509) | 0.188
